Experimental findings from patent US20030229114A1, “Pyrroloquinoline quinone drugs as a neuroprotectant and methods of use thereof” (priority 2002, published 2003) are described below.

“And” between values parts separate entries of the source, which are not always exact repeats. Equal entries are not always repeated.

The data set is described as follows: Assay of H2O2 produced by the reaction of SIN-1 with SOD or PQQ. It is filed as biochemical. The conditions noted are these: SIN-1 1 mM with SOD 100 units/ml or PQQ 100 μM; catalase background subtracted. As to the method:
The method described by Yakes and Van Houten (1997) was used, exploiting the oxidation of o-diansidine dihydrochloride (o-DD, Sigma D-3252) in the presence of horseradish peroxidase (Sigma P-8250). Briefly, SIN-1 (1 mM) was incubated with SOD (100 units/ml) or PQQ (100 μM) in the absence or presence of catalase (100 units/ml) in EBSS for various times. Then o-DD was added to a final concentration of 250 μM and 2.5 units/ml horseradish peroxidase were added. After 1 hr incubation at 37° C., the absorbance at 470 nm was measured. The concentration of H2O2 in samples was calculated based on a standard curve obtained by the reaction of various concentrations of H2O2 with o-DD and horseradish peroxidase.

`O=C(O)c1cc(C(=O)O)c2c(n1)C(=O)C(=O)c1cc(C(=O)O)[nH]c1-2` [PQQ, Pyrroloquinoline quinone]: the “H2O2 concentration four hours after reaction with SIN-1” value is 14.3 ± 4.3 µM and 27 ± 0.8 µM.
As for SOD: bovine superoxide dismutase, the “H2O2 concentration four hours after reaction with SIN-1” value is 110 ± 12.4 µM and 85.2 ± 0.2 µM.
